# In PubChem BioAssay AID485314 (National Center for Advancing Translational Sciences (NCATS), 2010):
# Out of some 340,000 compounds screened, about 4,500 (1.3%) were called active. Inconclusive means that the source gave no clear call. Such entries were picked first, then a sample of the others. Calls come from the whole dose curve; as a rule, active = well fitted inhibition curve with a large enough effect; inconclusive = small, poorly fitted or top-dose-only effect, or another doubt; inactive = no such curve, though single readings can be large or run the other way. Where the call is inconclusive, the potency comes from a doubtful curve fit.
# Biological target: DNA polymerase beta (Homo sapiens) (UniProt P06746)
# Assay: qHTS Assay for Inhibitors of DNA Polymerase Beta
# Conditions: Pol beta primer extension/strand displacement, fluorescence kinetic; activity change, negative = inhibition: at 114 µM (top of the series)
# How it was run: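 Human Pol beta at 10 nM; strand-displacement substrate 50 nM final. Compound exposure 15 min at room temperature before start, reaction 10 min at room temperature.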
# % is set by controls: 0 for no effect and ±100 for the full control effect; potency is the fitted concentration of half-maximal effect.
SMILES,Potency,"activity change, negative = inhibition"
CC(C)c1ccc(NC(=O)C(c2ccccc2)N(Cc2ccco2)C(=O)CC2NC(=O)NC2=O)cc1 (stereo unspecified),"inconclusive: 89.1 µM [inhibitor, single point]",–
O=[N+]([O-])c1ccc2c(c1N1CCCCC1)=NC1(CCCCC1)[N+]=2[O-],inactive,–
Cc1cc(C)c(C(=O)N(C)C2CCCN(Cc3ccccc3F)C2)o1 (stereo unspecified),"inconclusive: 0.126 µM [inhibitor, full curve, poor fit]",–
CCOC(=O)c1ccccc1Nc1cc(C)nc2nc(-c3ccco3)nn12,"inconclusive: 56.2 µM [inhibitor, partial curve]",–
Cc1csc(NC(=O)c2ccc(-c3ccc(Cl)cc3Cl)o2)n1,"inconclusive: 17.8 µM [inhibitor, single point]",–
O=C(O)CC(NS(=O)(=O)c1ccc(Br)s1)c1ccccc1 (stereo unspecified),inactive,–
COc1cccc(N2CCN(c3c(C#N)c(C(F)(F)F)nn3C)CC2)c1,inactive,–
C/C=C/COC(=O)c1[nH]c2c(c1C)C(=O)CC(c1ccc(N(C)C)cc1)C2 (stereo unspecified),inactive,–
COc1cccc(CNc2ncc(-c3ccc(Br)cc3)n2C)c1,"inconclusive: 0.158 µM [inhibitor, full curve, poor fit]",–
CC1=CCC2C(=O)N(c3ccc(OC(=O)c4ccco4)cc3)C(=O)C2C1 (stereo unspecified),"inconclusive: 5.01 µM [inhibitor, partial curve]",–
NC(=O)CNC(=O)[C@@H]1CC2(CC(c3ccccc3)=NO2)CN1C(=O)c1ccc(Br)cc1 (stereo partly specified),"inconclusive: 39.8 µM [inhibitor, single point]",–
O=c1c2[nH]c3ccc(Br)cc3c2ncn1CCCn1ccnc1,"inconclusive: 1.41 µM [inhibitor, full curve, poor fit]",–
CCOCCCNC(=O)Nc1cc(C(=O)NCc2ccc(C(C)C)cc2)ccc1N1CCCC1,inactive,–
COC(=O)c1ccc(C(=O)NCCCCO)cc1,"inconclusive: 100 µM [inhibitor, single point]",–
CSc1cccc(NC(=O)Cn2nc(C)c3sc4ccccc4c3c2=O)c1,inactive,–
O=C1NN(c2ccccc2)C(=O)/C1=C/c1ccc(-c2cccc(C(=O)O)c2)o1,active: 35.5 µM,–
COc1cc(CN2CCCC(C(=O)c3ccccc3SC)C2)cc(OC)c1 (stereo unspecified),inactive,–
N#CC1=C(N)SC(N)=C(C#N)C1c1ccoc1,active: 7.08 µM,–
Cc1ccccc1-c1nc(CS(=O)(=O)CC(=O)Nc2cccc(C(F)(F)F)c2)c(C)o1,"inconclusive: 100 µM [inhibitor, single point]",–
CCCc1c(C)[nH]c2ccc(C(=O)O)cc2c1=S,–,inconclusive: -143% [inhibitor]
CC(C)(C)c1ccc(OCCCC(=O)N2CCOCC2)cc1,"inconclusive: 3.98 µM [inhibitor, partial curve]",–
O=C(Cc1ccc(-n2c(=O)[nH]c3ccsc3c2=O)cc1)NCc1cccnc1,"inconclusive: 89.1 µM [inhibitor, single point]",–
Cn1c(N)c(C(=O)COC(=O)c2cc(-c3ccco3)nc3ccccc23)c(=O)n(Cc2ccccc2)c1=O,active: 20 µM,–
COc1cc(C2C(C#N)=C(N)Oc3cc(O)ccc32)cc2c1OCO2 (stereo unspecified),inactive,–

SMILES,Potency,"activity change, negative = inhibition"
O=C(CSc1nnc(NC(=O)C2CC(=O)N(c3ccccc3)C2)s1)NCc1ccco1 (stereo unspecified),active: 89.1 µM,–
O=C(Nc1ccc2nc(SCC(=O)N3CCCc4ccccc43)sc2c1)c1cccc(Cl)c1,inactive,–
CCc1ccc(/C=N/NC(=O)c2cc(-c3ccncc3)nc3ccccc23)s1,"inconclusive: 79.4 µM [inhibitor, single point]",–
COCCCNS(=O)(=O)c1ccc(N2CCCCS2(=O)=O)cc1,inactive,–
CCCCc1nc(NCCNC(=O)c2ccco2)c(C#N)c2c1CSC(C)(C)C2,inactive,–
COc1ccc(-c2[nH]c(-c3ccc(F)cc3)nc2SCC(=O)NCc2ccco2)cc1OC,"inconclusive: 31.6 µM [inhibitor, partial curve]",–
O=C(COC(=O)CN1C(=O)c2ccccc2C1=O)Nc1ccc(S(=O)(=O)N2CCCC2)cc1,"inconclusive: 28.2 µM [inhibitor, single point]",–
CCCCNc1ccc2c3c(cccc13)C(=O)N(CCCC)C2=O,"inconclusive: 50.1 µM [inhibitor, single point]",–
CCOC(=O)c1ccc2c(c1)N(Cc1cccc(C(F)(F)F)c1)C(=O)c1ccccc1S2(=O)=O,inactive,–
CCCn1ccc2c(OCC(=O)Nc3ccccc3OCC)cccc2c1=O,"inconclusive: 39.8 µM [inhibitor, single point]",–
Cc1nc2ccccc2cc1C(=O)O,inactive,–
Cc1oc(-c2ccc(F)cc2)cc1-c1nn2c(-c3ccoc3C)nnc2s1,active: 3.55 µM,–
O=C(O/N=C1/CCSc2ccccc21)c1ccc(F)cc1,inactive,–
Cc1nc(NC(=O)c2ccco2)sc1C(=O)Nc1ccc(Br)cc1,"inconclusive: 89.1 µM [inhibitor, single point]",–
O=C(O)CSc1nnc(SCc2cccc3ccccc23)s1,active: 89.1 µM,–
O=C(c1coc(=O)c(Br)c1)N1CCCc2ccccc21,active: 25.1 µM,–
CC(C)(C)c1ccc2c(c1)N(CC(=O)N1CCCC1)C(=O)CO2,"inconclusive: 15.8 µM [inhibitor, partial curve]",–
COC(=O)C(Cc1cnc(Cl)s1)(C(=O)OC)c1ccc([N+](=O)[O-])cc1[N+](=O)[O-],"inconclusive: 3.55 µM [inhibitor, full curve]",–
CCCCNC(=O)c1cc2c(=O)n3cccc(C)c3nc2s1,inactive,–
COc1cccc(Nc2cc(C)c3ccccc3n2)c1,"inconclusive: 8.91 µM [inhibitor, single point]",–
CNC(=O)COC(=O)c1ccc(Cl)c(S(=O)(=O)N2CCCC2)c1,"inconclusive: 50.1 µM [inhibitor, partial curve, poor fit]",–
S=c1[nH]nc(COc2cccc(Cl)c2)n1Cc1ccccc1,"inconclusive: 89.1 µM [inhibitor, single point]",–
COc1ccc(NC(=O)Cn2cnc3ccc(S(=O)(=O)N4CCC(C)CC4)cc3c2=O)cc1Cl,"inconclusive: 70.8 µM [inhibitor, single point]",–
O=C(O)c1ccccc1-c1ccccc1C(=O)Nc1ccc(-c2nc3cc(Cl)ccc3o2)cc1,"inconclusive: 79.4 µM [inhibitor, single point]",–

SMILES,Potency,"activity change, negative = inhibition"
COc1ccc(NC(=O)Nc2ccc3c(c2)CCC3)cc1,"inconclusive: 39.8 µM [inhibitor, single point]",–
Cc1sc2nc(SCC(=O)N3CCOCC3)[nH]c(=O)c2c1-c1ccccc1,inactive,–
CCn1c(CSc2nnc3ccccn23)nc2cc(C(=O)O)ccc21,"inconclusive: 89.1 µM [inhibitor, single point]",–
COc1ccc(OC)c(NC(=O)c2nnn(CC(=O)Nc3ccc4c(c3)OCO4)c2N)c1,"inconclusive: 89.1 µM [inhibitor, single point]",–
CCCCC(=O)NC(c1ccco1)c1c(O)ccc2ccccc12 (stereo unspecified),"inconclusive: 0.141 µM [inhibitor, full curve, poor fit]",–
Cc1oc(C(=O)O)cc1COc1ccc2c3c(c(=O)oc2c1)CCC3,active: 35.5 µM,–
Cc1ccc(S(=O)(=O)NC(=O)c2ccc(-c3ccc(C)c4ccccc34)o2)cc1,"inconclusive: 44.7 µM [inhibitor, partial curve]",–
C=CCn1c(COc2ccc(CC)cc2)nnc1SC/C(O)=C(\C#N)c1nc2ccccc2[nH]1,"inconclusive: 17.8 µM [inhibitor, full curve]",–
Cc1cc(C)c(OCC(=O)Nc2nc(-c3ccccn3)cs2)c(C)c1,"inconclusive: 3.55 µM [inhibitor, full curve]",–
CCN(CC)CCNC(=O)c1ccc(-c2nc(CS(=O)(=O)c3ccc(C)cc3)c(C)o2)cc1,inactive,–
CCOC(=O)Nc1c2ccccc2nc2ccccc12,"inconclusive: 63.1 µM [inhibitor, single point]",–
Cc1cc(NC(=O)C2CC=CCC2C(=O)O)no1 (stereo unspecified),active: 22.4 µM,–
O=C1CC(SC(=NCc2ccc3c(c2)OCO3)Nc2ccccc2)C(=O)N1 (stereo unspecified),"inconclusive: 89.1 µM [inhibitor, single point]",–
O=C(Nc1csc([N+](=O)[O-])c1)Nc1c(Cl)cccc1Cl,–,inconclusive: -43.4% [inhibitor]
CCOC(=O)c1c(-c2ccc(C)o2)csc1NC(=O)COC(=O)c1ccc(NC(N)=O)cc1,"inconclusive: 89.1 µM [inhibitor, single point]",–
COc1ccc(-c2cn3nc(N4CCCC(C(=O)NCc5ccccc5C)C4)sc3n2)cc1 (stereo unspecified),"inconclusive: 79.4 µM [inhibitor, single point]",–
COc1ccc(C(=O)CN2C(=O)NC3(CCc4ccccc43)C2=O)cc1 (stereo unspecified),"inconclusive: 0.355 µM [inhibitor, partial curve, poor fit]",–
Cc1ccc2[nH]c3ccccc3c(=O)c2c1,"inconclusive: 63.1 µM [inhibitor, single point]",–
Cc1ccccc1-n1c(=O)c2c3c(sc2n2cnnc12)CCCC3,inactive,–
COc1ccc(CNC(=O)C2CCN(c3nnc(-n4cccc4CNc4ccc(C)cc4)s3)CC2)c(OC)c1,inactive,–
O=S(=O)(c1ccc(F)cc1)N1CCC(n2c(C(F)(F)F)nc3cccnc32)CC1,inactive,–
O=C(/C=C/c1ccc([N+](=O)[O-])cc1)N1CCN(c2ccccc2F)CC1,"inconclusive: 39.8 µM [inhibitor, single point]",–
Cc1cc(C(=O)O)ccc1-c1ccc(/C=C2\NC(=O)N(Cc3ccc(F)cc3)C2=O)o1,–,inconclusive: -98.3% [inhibitor]

# Copied from the listing for reference:
SMILES,Potency,"activity change, negative = inhibition"
COc1ccc(NC(=O)Cn2cnc3ccc(S(=O)(=O)N4CCC(C)CC4)cc3c2=O)cc1Cl,"inconclusive: 70.8 µM [inhibitor, single point]",–
O=C(O)c1ccccc1-c1ccccc1C(=O)Nc1ccc(-c2nc3cc(Cl)ccc3o2)cc1,"inconclusive: 79.4 µM [inhibitor, single point]",–
COc1ccc(NC(=O)Nc2ccc3c(c2)CCC3)cc1,"inconclusive: 39.8 µM [inhibitor, single point]",–
